PubChem BioAssay AID1159578 | Peter MacCallum Cancer Centre, 2015

Assay: 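Knock-downs that alter how fast lymphatic endothelial cells migrate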 (primary screen)
Cell system: human lymphatic endothelial cells
Reagents: siRNA pool against human genes, 40 nM
Time to read-out: 48 h after transfection
Detection: 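Cells stained with dye and imaged after a scratch; covered wound area and nuclei counted, duplicates averaged, migration set against mock wells and turned into a robust z-score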
Reading the numbers: migration robust z-score: higher = faster migration into the scratch; migration relative to mock: higher = more scratch area covered than mock; nuclei per well: higher = more cells in the well
Call rule: 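Pools averaging fewer than 3300 nuclei are never called; remaining pools count as changed when migration robust z lies outside -2 to 2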
Calls: active = migration changed; inactive = no migration change, or too few cells
This is one part, drawn at random, of about 18,000 deposited reagents. Of all reagents, about 1,030 (5.7%) are marked active. 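Inactive calls also include pools with fewer than 3300 nuclei, whose migration was not assessed.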 Raw values are not corrected between plates. A number with no mark means an inactive call.

| Target gene | migration robust z-score | migration class with cell-count check | migration relative to mock | nuclei per well, duplicate mean |
| --- | --- | --- | --- | --- |
| CA7 (carbonic anhydrase 7) | -0.18 | migration z between -2 and 2; enough cells | 0.77 | 6034 |
| REC8 (REC8 meiotic cohesin complex component) | 2.13 (active) | migration z above 2; enough cells | 1.43 | 6462 |
| CEACAM18 (CEA cell adhesion molecule 18) | 0.05 | migration z between -2 and 2; enough cells | 0.9 | 7100 |
| SOX17 (SRY-box transcription factor 17) | -0.4 | migration z between -2 and 2; enough cells | 0.78 | 5928 |
| TMEM62 (transmembrane protein 62) | -0.62 | migration z between -2 and 2; enough cells | 0.68 | 6558 |
| MID1IP1 (MID1 interacting protein 1) | 1.05 | migration z between -2 and 2; enough cells | 1.16 | 4908 |
| CLDN11 (claudin 11) | 0.19 | migration z between -2 and 2; enough cells | 0.94 | 6074 |
| RANBP10 (RAN binding protein 10) | -0.52 | migration z between -2 and 2; enough cells | 0.75 | 6354 |
| KRT5 (keratin 5) | 2.29 (active) | migration z above 2; enough cells | 1.48 | 6865 |
| PHF20 (PHD finger protein 20) | 0.21 | migration z between -2 and 2; enough cells | 0.84 | 6636 |
| TMEM14C (transmembrane protein 14C) | 2.25 (active) | migration z above 2; enough cells | 1.47 | 6060 |
| PAQR8 (progestin and adipoQ receptor family member 8) | 0.06 | migration z between -2 and 2; enough cells | 0.9 | 6178 |
| HLA-DMA (major histocompatibility complex, class II, DM alpha) | -0.62 | migration z between -2 and 2; enough cells | 0.68 | 5838 |
| DGAT2L6 (diacylglycerol O-acyltransferase 2 like 6) | -0.4 | migration z between -2 and 2; enough cells | 0.78 | 5910 |
| PIP (prolactin induced protein) | -0.05 | migration z between -2 and 2; enough cells | 0.86 | 5690 |
| UMOD (uromodulin) | 1.94 | migration z between -2 and 2; enough cells | 1.4 | 5472 |
| PDZD7 (PDZ domain containing 7) | -0.95 | migration z between -2 and 2; enough cells | 0.64 | 6168 |
| CTTN (cortactin) | -0.66 | migration z between -2 and 2; enough cells | 0.72 | 5288 |
| IL4I1 (interleukin 4 induced 1) | -1.32 | migration z between -2 and 2; enough cells | 0.55 | 5472 |
| SLC16A1 | 0.7 | migration z between -2 and 2; enough cells | 0.94 | 5786 |
| AIF1L (allograft inflammatory factor 1 like) | 0.88 | migration z between -2 and 2; enough cells | 1.12 | 5820 |
| LYG2 (lysozyme g2) | -0.16 | migration z between -2 and 2; enough cells | 0.77 | 6592 |
| H3C15 (H3 clustered histone 15) | -0.64 | migration z between -2 and 2; enough cells | 0.72 | 6300 |
| CACNG8 (calcium voltage-gated channel auxiliary subunit gamma 8) | 0.21 | migration z between -2 and 2; enough cells | 0.84 | 6072 |
| TMX1 (thioredoxin related transmembrane protein 1) | 1.03 | migration z between -2 and 2; enough cells | 1 | 5937 |
| TBCD (tubulin folding cofactor D) | -1.11 | migration z between -2 and 2; enough cells | 0.6 | 5167 |
| KNL1 (kinetochore scaffold 1) | 0.6 | migration z between -2 and 2; enough cells | 1.04 | 6198 |
| CXCL6 (C-X-C motif chemokine ligand 6) | -1.82 | migration z between -2 and 2; enough cells | 0.41 | 4438 |
| DUSP3 (dual specificity phosphatase 3) | -0.36 | migration z between -2 and 2; enough cells | 0.74 | 5204 |
| DLL4 (delta like canonical Notch ligand 4) | -1.68 | migration z between -2 and 2; enough cells | 0.44 | 4780 |
| OR10H2 (olfactory receptor family 10 subfamily H member 2) | 0.12 | migration z between -2 and 2; enough cells | 0.92 | 5160 |
| NAT8 (N-acetyltransferase 8 (putative)) | 0.46 | migration z between -2 and 2; enough cells | 0.9 | 5084 |
| GPATCH2 (G-patch domain containing 2) | 0.07 | migration z between -2 and 2; enough cells | 0.91 | 4930 |
| GARNL3 (GTPase activating Rap/RanGAP domain like 3) | -2.05 (active) | migration z below -2; enough cells | 0.35 | 3574 |
| ORC6 (origin recognition complex subunit 6) | 0.4 | migration z between -2 and 2; enough cells | 0.98 | 6258 |
| LY9 (lymphocyte antigen 9) | -0.23 | migration z between -2 and 2; enough cells | 0.83 | 5496 |
| ANKRD13B (ankyrin repeat domain 13B) | -0.66 | migration z between -2 and 2; enough cells | 0.71 | 3910 |
| VIRMA (vir like m6A methyltransferase associated) | -1.43 | migration z between -2 and 2; enough cells | 0.52 | 6269 |
| FAM221B (family with sequence similarity 221 member B) | -1 | migration z between -2 and 2; enough cells | 0.63 | 4640 |

Laid out differently: entries from further up
{"Target gene":"CXCL6 (C-X-C motif chemokine ligand 6)","migration robust z-score":-1.82,"migration class with cell-count check":"migration z between -2 and 2; enough cells","migration relative to mock":0.41,"nuclei per well, duplicate mean":4438}
{"Target gene":"DUSP3 (dual specificity phosphatase 3)","migration robust z-score":-0.36,"migration class with cell-count check":"migration z between -2 and 2; enough cells","migration relative to mock":0.74,"nuclei per well, duplicate mean":5204}
